Results as given in doi:10.1101/2025.09.09.675128.
These are yes or no findings as the source states them, for the method shown. Binding seen in cells or lysates may run through a third protein. These calls come from enrichment with a bait or labelling near it, and not all partners need be listed. Values belong to the molecule of their own block, whether it stands above or below them.

Protein sequences, listed by entry. Tags and fused reporters are not part of them. Lines headed by an entry give the natural chain unless they say otherwise; changes in a name come on top.
UniProt P09391: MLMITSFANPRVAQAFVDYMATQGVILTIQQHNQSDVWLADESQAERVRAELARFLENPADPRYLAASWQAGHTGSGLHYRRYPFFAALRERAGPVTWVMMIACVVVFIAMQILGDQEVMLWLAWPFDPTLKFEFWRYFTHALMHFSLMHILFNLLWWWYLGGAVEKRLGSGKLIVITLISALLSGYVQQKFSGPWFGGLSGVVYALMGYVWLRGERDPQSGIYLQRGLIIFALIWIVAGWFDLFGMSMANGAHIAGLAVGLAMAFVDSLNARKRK
UniProt P10408: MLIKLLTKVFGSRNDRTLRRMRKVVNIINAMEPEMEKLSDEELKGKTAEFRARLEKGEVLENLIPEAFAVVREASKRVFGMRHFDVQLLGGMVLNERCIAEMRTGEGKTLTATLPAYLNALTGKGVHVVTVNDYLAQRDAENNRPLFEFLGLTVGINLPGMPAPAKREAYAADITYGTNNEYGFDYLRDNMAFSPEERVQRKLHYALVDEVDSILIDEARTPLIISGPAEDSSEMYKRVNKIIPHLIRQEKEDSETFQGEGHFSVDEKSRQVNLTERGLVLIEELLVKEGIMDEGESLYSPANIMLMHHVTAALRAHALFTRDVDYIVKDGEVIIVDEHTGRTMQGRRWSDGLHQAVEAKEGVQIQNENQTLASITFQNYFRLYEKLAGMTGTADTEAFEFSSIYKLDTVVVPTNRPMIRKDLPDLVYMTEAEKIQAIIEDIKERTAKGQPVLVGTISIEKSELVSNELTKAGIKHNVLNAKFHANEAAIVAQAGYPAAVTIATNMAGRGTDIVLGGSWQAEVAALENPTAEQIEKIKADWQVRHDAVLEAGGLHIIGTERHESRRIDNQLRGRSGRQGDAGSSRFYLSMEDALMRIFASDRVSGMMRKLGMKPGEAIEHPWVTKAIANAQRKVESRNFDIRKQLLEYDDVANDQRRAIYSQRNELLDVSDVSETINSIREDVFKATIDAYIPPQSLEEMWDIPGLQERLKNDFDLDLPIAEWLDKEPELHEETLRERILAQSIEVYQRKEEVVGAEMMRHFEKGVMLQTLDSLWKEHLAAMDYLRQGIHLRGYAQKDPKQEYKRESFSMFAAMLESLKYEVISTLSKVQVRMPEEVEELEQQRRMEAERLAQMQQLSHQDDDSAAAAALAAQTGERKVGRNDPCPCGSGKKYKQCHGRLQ
UniProt P0AG99: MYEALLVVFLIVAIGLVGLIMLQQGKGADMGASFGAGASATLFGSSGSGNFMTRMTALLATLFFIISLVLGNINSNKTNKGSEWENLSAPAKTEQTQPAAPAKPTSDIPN
UniProt P0AGA2: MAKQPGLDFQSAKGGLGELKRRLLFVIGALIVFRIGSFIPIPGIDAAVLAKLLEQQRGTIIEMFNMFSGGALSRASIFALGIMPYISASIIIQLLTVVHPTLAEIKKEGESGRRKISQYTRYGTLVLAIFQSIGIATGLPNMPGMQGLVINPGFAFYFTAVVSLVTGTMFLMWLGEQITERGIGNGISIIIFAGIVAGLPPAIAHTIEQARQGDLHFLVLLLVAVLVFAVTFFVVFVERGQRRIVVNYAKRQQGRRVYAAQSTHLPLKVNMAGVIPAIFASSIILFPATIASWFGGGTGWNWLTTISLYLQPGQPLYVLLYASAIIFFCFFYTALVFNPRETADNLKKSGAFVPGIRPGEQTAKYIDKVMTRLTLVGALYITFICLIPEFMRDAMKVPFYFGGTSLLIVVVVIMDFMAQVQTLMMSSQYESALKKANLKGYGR

Target: E. coli rhomboid protease GlpG, genomically tagged with 3X FLAG (E. coli) (UniProt P09391)
Test: affinity purification with mass spectrometry

binding: binds
Molecule: ATP-dependent motor protein SecA (from UniProt P10408 1-901)

binding: binds
B5: periplasmic serine endoprotease DegP (enzyme, UniProt P0C0V0 27-474)
chain: AETSSATTAQQMPSLAPMLEKVMPSVVSINVEGSTTVNTPRMPRNFQQFFGDDSPFCQEGSPFQSSPFCQGGQGGNGGGQQQKFMALGSGVIIDADKGYVVTNNHVVDNATVIKVQLSDGRKFDAKMVGKDPRSDIALIQIQNPKNLTAIKMADSDALRVGDYTVAIGNPFGLGETVTSGIVSALGRSGLNAENYENFIQTDAAINRGNSGGALVNLNGELIGINTAILAPDGGNIGIGFAIPSNMVKNLTSQMVEYGQVKRGELGIMGTELNSELAKAMKVDAQRGAFVSQVLPNSSAAKAGIKAGDVITSLNGKPISSFAALRAQVGTMPVGSKLTLGLLRDGKQVNVNLELQQSSQNQVDSSSIFNGIEGAEMSNKGKDQGVVVNNVKTGTPAAQIGLKKGDVIIGANQQAVKNIAELRKVLDSKPSVLALNIQRGDSTIYLLMQ

Further lines, the molecule ahead of its results:

Molecule: SecG of the SecYEG translocon (from UniProt P0AG99 1-110)
binding: binds

Molecule: SecY of the SecYEG translocon (from UniProt P0AGA2 1-443)
binding: binds

B1: SecD (protein, UniProt P0AG90 1-615)
chain: MLNRYPLWKYVMLIVVIVIGLLYALPNLFGEDPAVQITGARGVAASEQTLIQVQKTLQEEKITAKSVALEEGAILARFDSTDTQLRAREALMGVMGDKYVVALNLAPATPRWLAAIHAEPMKLGLDLRGGVHFLMEVDMDTALGKLQEQNIDSLRSDLREKGIPYTTVRKENNYGLSITFRDAKARDEAIAYLSKRHPDLVISSQGSNQLRAVMSDARLSEAREYAVQQNINILRNRVNQLGVAEPVVQRQGADRIVVELPGIQDTARAKEILGATATLEFRLVNTNVDQAAAASGRVPGDSEVKQTREGQPVVLYKRVILTGDHITDSTSSQDEYNQPQVNISLDSAGGNIMSNFTKDNIGKPMATLFVEYKDSGKKDANGRAVLVKQEEVINIANIQSRLGNSFRITGINNPNEARQLSLLLRAGALIAPIQIVEERTIGPTLGMQNIEQGLEACLAGLLVSILFMIIFYKKFGLIATSALIANLILIVGIMSLLPGATLSMPGIAGIVLTLAVAVDANVLINERIKEELSNGRTVQQAIDEGYRGAFSSIFDANITTLIKVIILYAVGTGAIKGFAITTGIGVATSMFTAIVGTRAIVNLLYGGKRVKKLSI
binding: binds

B2: periplasmic serine endoprotease DegQ (enzyme, UniProt P39099 28-455)
chain: SIPGQVADQAPLPSLAPMLEKVLPAVVSVRVEGTASQGQKIPEEFKKFFGDDLPDQPAQPFEGLGSGVIINASKGYVLTNNHVINQAQKISIQLNDGREFDAKLIGSDDQSDIALLQIQNPSKLTQIAIADSDKLRVGDFAVAVGNPFGLGQTATSGIVSALGRSGLNLEGLENFIQTDASINRGNSGGALLNLNGELIGINTAILAPGGGSVGIGFAIPSNMARTLAQQLIDFGEIKRGLLGIKGTEMSADIAKAFNLDVQRGAFVSEVLPGSGSAKAGVKAGDIITSLNGKPLNSFAELRSRIATTEPGTKVKLGLLRNGKPLEVEVTLDTSTSSSASAEMITPALEGATLSDGQLKDGGKGIKIDEVVKGSPAAQAGLQKDDVIIGVNRDRVNSIAEMRKVLAAKPAIIALQIVRGNESIYLLMR
binding: binds

B3: SecF (protein, UniProt P0AG93 1-323)
chain: MAQEYTVEQLNHGRKVYDFMRWDYWAFGISGLLLIAAIVIMGVRGFNWGLDFTGGTVIEITLEKPAEIDVMRDALQKAGFEEPMLQNFGSSHDIMVRMPPAEGETGGQVLGSQVLKVINESTNQNAAVKRIEFVGPSVGADLAQTGAMALMAALLSILVYVGFRFEWRLAAGVVIALAHDVIITLGILSLFHIEIDLTIVASLMSVIGYSLNDSIVVSDRIRENFRKIRRGTPYEIFNVSLTQTLHRTLITSGTTLMVILMLYLFGGPVLEGFSLTMLIGVSIGTASSIYVASALALKLGMKREHMLQQKVEKEGADQPSILP
binding: binds

B4: YidC (protein, UniProt P25714 1-548)
chain: MDSQRNLLVIALLFVSFMIWQAWEQDKNPQPQAQQTTQTTTTAAGSAADQGVPASGQGKLISVKTDVLDLTINTRGGDVEQALLPAYPKELNSTQPFQLLETSPQFIYQAQSGLTGRDGPDNPANGPRPLYNVEKDAYVLAEGQNELQVPMTYTDAAGNTFTKTFVLKRGDYAVNVNYNVQNAGEKPLEISSFGQLKQSITLPPHLDTGSSNFALHTFRGAAYSTPDEKYEKYKFDTIADNENLNISSKGGWVAMLQQYFATAWIPHNDGTNNFYTANLGNGIAAIGYKSQPVLVQPGQTGAMNSTLWVGPEIQDKMAAVAPHLDLTVDYGWLWFISQPLFKLLKWIHSFVGNWGFSIIIITFIVRGIMYPLTKAQYTSMAKMRMLQPKIQAMRERLGDDKQRISQEMMALYKAEKVNPLGGCFPLLIQMPIFLALYYMLMGSVELRQAPFALWIHDLSAQDPYYILPILMGVTMFFIQKMSPTTVTDPMQQKIMTFMPVIFTVFFLWFPSGLVLYYIVSNLVTIIQQQLIYRGLEKRGLHSREKKKS
binding: binds
